Consider 2 sequences from PMC3401165, “Regulation of the Cyanobacterial CO2-Concentrating Mechanism Involves Internal Sensing of NADP^+ and α-Ketogutarate Levels by Transcription Factor CcmR” (PLoS ONE, 2012).

Construct, isoform or probe ends are uncertain for at least one entry. For part of these data: At least one verdict was read from the data and is not stated in words by the source. Tags and fusion partners may be left off the protein sequences shown.

The target of one data set is T1, CmpR (UniProt Q55459).
T1 sequence (looked up, limits assumed): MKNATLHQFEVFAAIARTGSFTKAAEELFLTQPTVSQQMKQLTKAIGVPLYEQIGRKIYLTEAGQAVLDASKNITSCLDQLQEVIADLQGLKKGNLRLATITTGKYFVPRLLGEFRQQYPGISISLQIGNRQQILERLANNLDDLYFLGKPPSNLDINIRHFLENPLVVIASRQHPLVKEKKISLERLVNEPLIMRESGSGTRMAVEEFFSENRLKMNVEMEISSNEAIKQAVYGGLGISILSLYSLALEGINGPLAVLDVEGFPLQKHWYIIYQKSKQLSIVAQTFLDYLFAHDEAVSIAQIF
The experiment in a line: SPR. To be noted: 1.5 uM CmpR (binding enhanced), SPR: 10 mM Pipes pH 7.4, 300 mM NaCl, 0.02% Tween-20, 25 uL/min, temperature not stated, recombinant protein, label: 5' biotin (forward strand), probe letters rebuilt from the primers and the genome.

The test system of data set [1] is T2, CcmR (Synechocystis sp. PCC 6803).
T2 sequence (looked up, limits assumed): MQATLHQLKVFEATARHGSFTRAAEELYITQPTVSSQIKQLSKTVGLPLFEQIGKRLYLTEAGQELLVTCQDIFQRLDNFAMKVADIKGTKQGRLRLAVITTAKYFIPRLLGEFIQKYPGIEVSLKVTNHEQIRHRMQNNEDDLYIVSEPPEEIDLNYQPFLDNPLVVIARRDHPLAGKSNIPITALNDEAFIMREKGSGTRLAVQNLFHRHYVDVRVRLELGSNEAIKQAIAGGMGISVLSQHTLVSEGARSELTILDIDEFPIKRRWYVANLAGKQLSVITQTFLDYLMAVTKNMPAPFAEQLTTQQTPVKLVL
In words: SPR. To be noted: NADP+ or alpha-ketoglutarate (similar enhancement, not shown); SPR: 10 mM Pipes pH 7.4, 300 mM NaCl, 0.02% Tween-20, 25 uL/min, temperature not stated; recombinant protein; protein details: His-tag; label: 5' biotin (forward strand); probe letters rebuilt from the primers and the genome.

“AATTTACGTCGATTGAATGAACCCATAACTTTGATTGATTTTTTCTATGAAAAAAGGCAGACAGAAAAATTAAATAAGCGCCATGGATATCCCCGGTTTACGGAAGAGCACTGGGGCTCCTAGGCTAGGTAAACCAGGGGACGCTTTAAACTGCCTGCCCGAGGACAATGACTAATCCAAGGGGACTTGAATGATCTGATTATTAAGGAAAGCTAAAAATAGATAAATATCCAATTTTTTATGTAATTTATAGAAGTAGTCTATAAAATTAATCCACTATGAAAAATGCCACCCTCCACCA (double strand) [cmpA promoter]”: the binding result with CmpR (2-phosphoglycolate 10-500 uM) and with CmpR (RuBP 10-500 uM) was “binds” each time.
For the sequence “GCTCCCCGGACTAAGCTTGTCAAAATCATTGGCTTTATTCTATCATTGGTTATCTAACAACAATCCCAGGTCTATGAAAGTGAGTGTAATAGCCATAGGTCTATTTTAGTTATTGACTTCAGCACATCCTAGACCCAAG (double strand) [pccmR (SPR)]”, the binding result in data set [1] is “binds”.
